Test results: publication PMC12700556
These are yes or no findings as the source states them, for the method shown. In cells and extracts the contact can be indirect. Some entries that bind do so weakly or less than the wild type.

Chains of the proteins cited; added tags and fusions are not shown. Lines headed by an entry give the natural chain unless they say otherwise; changes in a name come on top.
UniProt P15090: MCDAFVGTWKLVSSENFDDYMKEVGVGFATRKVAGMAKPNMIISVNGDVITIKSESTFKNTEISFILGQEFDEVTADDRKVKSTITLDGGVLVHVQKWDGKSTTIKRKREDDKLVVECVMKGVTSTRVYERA
UniProt P05556: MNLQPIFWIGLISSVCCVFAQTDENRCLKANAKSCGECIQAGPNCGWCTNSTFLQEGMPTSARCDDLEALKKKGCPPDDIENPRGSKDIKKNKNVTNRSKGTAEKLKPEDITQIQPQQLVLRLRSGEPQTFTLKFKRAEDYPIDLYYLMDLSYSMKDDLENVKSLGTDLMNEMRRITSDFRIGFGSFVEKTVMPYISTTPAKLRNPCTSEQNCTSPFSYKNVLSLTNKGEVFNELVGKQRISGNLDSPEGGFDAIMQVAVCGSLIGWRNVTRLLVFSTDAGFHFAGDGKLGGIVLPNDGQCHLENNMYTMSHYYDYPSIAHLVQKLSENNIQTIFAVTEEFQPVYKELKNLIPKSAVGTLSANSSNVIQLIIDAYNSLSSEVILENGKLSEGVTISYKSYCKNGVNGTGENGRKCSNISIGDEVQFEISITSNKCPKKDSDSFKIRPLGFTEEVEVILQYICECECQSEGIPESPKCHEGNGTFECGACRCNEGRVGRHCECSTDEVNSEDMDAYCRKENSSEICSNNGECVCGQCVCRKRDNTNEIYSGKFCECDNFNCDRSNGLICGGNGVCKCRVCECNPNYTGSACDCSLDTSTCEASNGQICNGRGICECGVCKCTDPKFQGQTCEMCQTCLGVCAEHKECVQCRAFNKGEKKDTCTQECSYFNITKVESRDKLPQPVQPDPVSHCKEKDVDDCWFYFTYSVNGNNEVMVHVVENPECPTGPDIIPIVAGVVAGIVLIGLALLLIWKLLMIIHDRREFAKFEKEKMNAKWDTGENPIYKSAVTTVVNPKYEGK

Target: recombinant human FABP4 protein (fatty acid-binding protein 4) (human) (UniProt P15090)
Assay: co-IP; reciprocal coimmunoprecipitation of exogenous FABP4 and ITGB1 (n = 2); cells and antibodies not shown; only the target purified

integrin β 1 (ITGB1) (from UniProt P05556 21-798) (receptor)
binding: binds
